The source of these data is paper PMC9464236, “Biochemical characterization of a disease-causing human osteoprotegerin variant” (Scientific Reports, 2022).

Sequences of proteins named here, by UniProt entry; tags and fusion partners are left off. A change or cut given only in a name is not applied to a line headed by its entry.
UniProt O35235: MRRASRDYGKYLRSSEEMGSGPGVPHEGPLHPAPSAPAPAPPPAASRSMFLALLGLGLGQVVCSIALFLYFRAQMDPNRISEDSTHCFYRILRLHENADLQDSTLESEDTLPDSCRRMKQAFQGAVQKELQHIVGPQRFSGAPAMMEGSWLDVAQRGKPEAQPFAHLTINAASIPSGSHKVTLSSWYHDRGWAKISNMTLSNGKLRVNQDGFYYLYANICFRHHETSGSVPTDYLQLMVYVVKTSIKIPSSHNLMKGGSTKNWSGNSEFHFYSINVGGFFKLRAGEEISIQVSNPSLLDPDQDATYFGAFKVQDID

Results are given in words; binding and its absence hold for the method and conditions named. A result given as binding can be weak or reduced; the word gives no strength.

The assay addresses recombinant soluble RANKL (sRANKL) (UniProt O35235). Kind of assay: ELISA; plate coated with recombinant sRANKL, blocked with 1% BSA; OPG at 1 to 1000 ng/ml for 2 h; biotinylated rabbit anti-OPG, streptavidin-HRP; apparent Kd; both purified. On the technique in general: ELISA stands for enzyme-linked immunosorbent assay.

B1: human osteoprotegerin Stop402Leu mutant with a 19-residue C-terminal appendage (OPG^+19) (receptor)
chain: ETFPPKYLHYDEETSHQLLCDKCPPGTYLKQHCTAKWKTVCAPCPDHYYTDSWHTSDECLYCSPVCKELQYVKQECNRTHNRVCECKEGRYLEIEFCLKHRSCPPGFGVVQAGTPERNTVCKRCPDGFFSNETSSKAPCRKHTNCSVFGLLLTQKGNATHDNICSGNSESTQKCGIDVTLCEEAFFRFAVPTKFTPNWLSVLVDNLPGTKVNAESVERIKRQHSSQEQTFQLLKLWKHQNKDQDIVKKIIQDIDLCENSVQRHIGHANLTFEQLRSLMESLPGKKVGAEDIEKTIKACKPSDQILKLLSLWRIKNGDQDTLKGLMHALKHSKTYHFPKTVTQSLKKTIRFLHSFTMYKLYQKLFLEMIGNQVQSVKISCLLLEMAIELFPHNWRDPMDE
notes: Osteoprotegerin (OPG, TNFRSF11B), human; complete open reading frame, residues up to 401, followed by the read-through appendage; 19-residue appendage 402-420 made by read-through of the mutated stop codon (Stop402Leu); Secreted; Mixture of higher-order oligomers; also called mutant hOPG; mutant OPG; source: 293-freestyle cells, transiently transfected; purified from medium (heparin Sepharose, …)
For the molecule B1, the binding entry is “binds”.

B2: wildtype human osteoprotegerin (WT OPG) (receptor, UniProt O00300 22-401, looked up)
chain: ETFPPKYLHYDEETSHQLLCDKCPPGTYLKQHCTAKWKTVCAPCPDHYYTDSWHTSDECLYCSPVCKELQYVKQECNRTHNRVCECKEGRYLEIEFCLKHRSCPPGFGVVQAGTPERNTVCKRCPDGFFSNETSSKAPCRKHTNCSVFGLLLTQKGNATHDNICSGNSESTQKCGIDVTLCEEAFFRFAVPTKFTPNWLSVLVDNLPGTKVNAESVERIKRQHSSQEQTFQLLKLWKHQNKDQDIVKKIIQDIDLCENSVQRHIGHANLTFEQLRSLMESLPGKKVGAEDIEKTIKACKPSDQILKLLSLWRIKNGDQDTLKGLMHALKHSKTYHFPKTVTQSLKKTIRFLHSFTMYKLYQKLFLEMIGNQVQSVKISCL
notes: Osteoprotegerin (OPG, TNFRSF11B), human; complete open reading frame of full-length human OPG in pcDNA3.4-TOPO; stop codon at position 402; Disulfide-linked dimer; assays used the SEC-purified dimer; also called WT hOPG; hOPG; source: 293-freestyle cells, transiently transfected; purified from medium (heparin Sepharose, Superdex 200)
As for B2, the binding result is “binds”.
